From US20230302124A1
No constants are given. Whether binding was seen depends on the method and setting. Some results given as binding are weak or reduced against the parent protein; the word gives no strength.

How the values were obtained:
[1] = target: T1, CsoS4A-SII (Halothiobacillus neapolitanus); experiment: cryo-EM model of the purified shells
T1 sequence: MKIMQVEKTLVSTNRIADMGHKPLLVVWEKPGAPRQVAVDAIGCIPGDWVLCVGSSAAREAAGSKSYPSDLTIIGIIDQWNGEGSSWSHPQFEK

[2] = target: T1, CsoS4A-SII (Halothiobacillus neapolitanus); experiment: co-expression in E. coli, Strep-Tactin purification through CsoS4A-SII, anion exchange, TEM

B1: CsoS1A (protein)
chain: MADVTGIALGMIETRGLVPAIEAADAMTKAAEVRLVGRQFVGGGYVTVLVRGETGAVNAAVRAGADACERVGDGLVAAHIIARVHSEVENILPKAPQA
[1]
  binding: binds
[2]
  binding: binds
